According to PMC5209662:
Numbering of substitutions follows the chain as printed. Where two headings read alike, the source gives them in different places. No constants are given. Whether binding was seen depends on the method and setting. Binding seen in cells or lysates may run through a third protein. Some results given as binding are weak or reduced against the parent protein; the word gives no strength. Sequences can lack the tags named with a protein.

Protein sequences, listed by entry. Tags and fused reporters are not part of them.
UniProt P05130: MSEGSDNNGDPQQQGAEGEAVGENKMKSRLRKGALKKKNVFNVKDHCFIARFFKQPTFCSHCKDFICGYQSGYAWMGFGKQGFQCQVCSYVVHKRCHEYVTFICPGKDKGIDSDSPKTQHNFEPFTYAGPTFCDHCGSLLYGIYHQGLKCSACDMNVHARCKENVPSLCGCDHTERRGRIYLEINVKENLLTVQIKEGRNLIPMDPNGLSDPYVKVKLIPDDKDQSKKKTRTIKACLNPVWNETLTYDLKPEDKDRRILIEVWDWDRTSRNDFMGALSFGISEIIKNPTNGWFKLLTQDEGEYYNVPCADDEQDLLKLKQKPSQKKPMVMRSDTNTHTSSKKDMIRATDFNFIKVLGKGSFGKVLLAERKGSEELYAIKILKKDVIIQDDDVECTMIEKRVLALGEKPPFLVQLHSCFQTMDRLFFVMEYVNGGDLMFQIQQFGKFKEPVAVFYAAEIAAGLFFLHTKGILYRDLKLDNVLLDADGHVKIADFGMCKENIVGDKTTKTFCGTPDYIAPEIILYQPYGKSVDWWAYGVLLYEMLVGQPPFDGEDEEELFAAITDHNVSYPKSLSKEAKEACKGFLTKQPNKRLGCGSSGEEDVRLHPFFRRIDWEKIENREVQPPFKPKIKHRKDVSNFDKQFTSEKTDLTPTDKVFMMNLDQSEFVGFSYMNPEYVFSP

Experiments:
Experiment in all cases: co-IP; lysates of co-transfected S2 cells (1% NP-40, 20 mM Tris-HCl pH 8.0, 150 mM NaCl, 2 mM EDTA); Flag antibody-conjugated beads, 2-2.5 hours at 4 °C, washes with lysis buffer; Western blot with anti-Myc-HRP or anti-HA-HRP
[1] = biological target: T1, Drosophila Gcm (Glial Cells Missing), 3xFlag-tagged (Drosophila) (UniProt Q27403)
T1 sequence: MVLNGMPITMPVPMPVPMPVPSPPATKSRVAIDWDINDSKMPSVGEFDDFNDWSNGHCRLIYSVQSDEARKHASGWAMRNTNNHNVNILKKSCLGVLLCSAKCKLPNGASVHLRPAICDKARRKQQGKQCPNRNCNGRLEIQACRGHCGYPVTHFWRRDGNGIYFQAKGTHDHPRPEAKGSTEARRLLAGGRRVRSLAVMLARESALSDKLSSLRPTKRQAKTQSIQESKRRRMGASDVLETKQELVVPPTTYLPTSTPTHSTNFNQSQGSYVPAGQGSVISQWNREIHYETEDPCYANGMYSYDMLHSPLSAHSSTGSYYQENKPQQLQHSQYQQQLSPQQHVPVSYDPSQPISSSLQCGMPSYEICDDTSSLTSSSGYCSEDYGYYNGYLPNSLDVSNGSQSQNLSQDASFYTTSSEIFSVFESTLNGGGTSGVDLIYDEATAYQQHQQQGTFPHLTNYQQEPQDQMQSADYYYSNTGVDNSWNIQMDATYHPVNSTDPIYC

[2] = biological target: T2, Drosophila Gcm carrying the R59L mutation, 3xFlag-tagged (Drosophila) (UniProt Q27403)
T2 sequence: T1 sequence with R59L

[3] = biological target: T1, Drosophila Gcm (Glial Cells Missing), 3xFlag-tagged (Drosophila); remark: listed apart in the source
[4] = biological target: T2, Drosophila Gcm carrying the R59L mutation, 3xFlag-tagged (Drosophila); remark: listed apart in the source

Drosophila Protein Kinase C PKC53E, 3xHA-tagged (from UniProt P05130 1-679) (enzyme)
binding [1]: binds
binding [2]: binds

B1: F-box protein Supernumerary limbs (Slimb), 6xMyc-tagged (protein, UniProt Q9VDE3 1-510)
chain: MMKMETDKIMDETNSNAQAFTTTMLYDPVRKKDSSPTYQTERELCFQYFTQWSESGQVDFVEHLLSRMCHYQHGQINAYLKPMLQRDFITLLPIKGLDHIAENILSYLDAESLKSSELVCKEWLRVISEGMLWKKLIERKVRTDSLWRGLAERRNWMQYLFKPRPGQTQRPHSFHRELFPKIMNDIDSIENNWRTGRHMLRRINCRSENSKGVYCLQYDDGKIVSGLRDNTIKIWDRTDLQCVKTLMGHTGSVLCLQYDDKVIISGSSDSTVRVWDVNTGEMVNTLIHHCEAVLHLRFNNGMMVTCSKDRSIAVWDMTSPSEITLRRVLVGHRAAVNVVDFDEKYIVSASGDRTIKVWSTSSCEFVRTLNGHKRGIACLQYRDRLVVSGSSDNSIRLWDIECGACLRVLEGHEELVRCIRFDTKRIVSGAYDGKIKVWDLVAALDPRAASNTLCLNTLVEHTGRVFRLQFDEFQIVSSSHDDTILIWDFLNFTPNENKTGRTPSPALMEH
binding [3]: binds
binding [4]: binds
